According to US11998481B2, “Methods and compositions for iontophoretic drug delivery to the eye” (University of Florida Research Foundation, Inc., priority 2018, dated 2024):
At least one structure is not confirmed: it was looked up by name or label, or the drawing left a doubt.

How the values were obtained:
[1] = Electrophoretic velocity analysis and circuit equivalent model for the posterior eye segment
[2] = Ex vivo iontophoretic delivery of fluorescein to the posterior eye segment, quantified in the vitreous by fluorometer; type: in vitro ADME, rabbit; conditions: calculated from final concentration in the vitreous
Text: Materials: Mature cadaver rabbit eyes were purchased from Pel-Freez Biologicals (Rogers, AR). The Nile Blue A dye (75% dye content) and Fluorescein were purchased from Sigma-Aldrich (St. Louis, MO). Electrode materials were made 3D printed with conductive PLA filament (Proto Pasta, Vancouver, WA). Cadaver rabbit eyes were fixed in Margo solution containing paraformaldehyde and glutaraldehyde purchased from Fisher Scientific (Hampton, NH). Soaking agents for lenses included phosphate buffered saline (PBS) or a HEPES solution purchased from Fisher Scientific (Hampton, NH). Commercial contact lenses Acuvue Oasys (14 mm diameter, 8.4 mm base curve, 0.0 power) were used in the study.
Lens Preparation: Contact lenses were loaded by soaking in a 1 mg/mL Nile Blue solution in PBS or in a 0.01 mg/mL fluorescein solution in HEPES overnight. Lenses were loaded overnight in an enclosed space to prevent photobleaching of any species. […] Both species have low molecular weights and therefore have rapid uptakes into the lenses.
Application of Electric Field: Loaded contact lenses were placed at the periphery of the cornea, on the sclera, and the two electrodes were placed over the lenses. […]
Quantification of Fluorescein Delivery: Delivery of fluorescein to the posterior eye segment was conducted four times for each variation of time and current. […]
Efficient transport of fluorescein to the vitreous: The fluorescein was loaded into lenses in a HEPES solution, which alleviated the damage done to the eye during the generation of caustic species from the electrochemical reactions. In order to quantify the delivery of fluorescein to the posterior eye segment, experiments were conducted at three different combinations or time and current and were compared to a control. […] After the application of the electric field to the sclera, the vitreous was harvested and fluorescence was quantified using a fluorometer. The concentrations of fluorescein were found using a calibration curve for the relative fluorescence (Table 3). […] Fluorescence was produced using a UV light source and observed thorough an orange filter. […]

[3] = in the sclera and choroid; order of magnitude; cited from earlier work

In the case of `O=C1OC2(c3ccc(O)cc3Oc3cc(O)ccc32)c2ccccc21` [Fluorescein], the “ratio of drug taken up by the blood vessels to that transported through the choroid” value [1] is reported as 1:250, the “rate constant for transport across the blood vessels relative to that of the electrophoretic transport” value ([1]; choroid) is reported as ~250 times and the “Electrophoretic Mobility” value ([2]; 1 hr 0.125 mA) is reported as 6460 μm^2/Vs. For the same compound, the “Electrophoretic Mobility” value ([2]; 1 hr 0.250 mA) was 13440 μm^2/Vs, the “Electrophoretic Mobility” value ([2]; 2 hr 0.125 mA) was 5820 μm^2/Vs and the diffusion coefficient [3] was 10^−10 to 10^−11 m^2/s.
